Assay results from patent publication EP0510151B1, “IMPROVED ANTI-PLAQUE COMPOSITIONS COMPRISING A COMBINATION OF MORPHOLINOAMINO ALCOHOL AND ANTI-MICROBIAL AGENT” (Pharmacia AB, priority 1990, dated 1992).

Columns and labels:
[1] = test system: Bacteroides melaninogenicus; test: Minimal inhibitory concentration (MIC) by broth dilution and checkerboard titration of combinations; type: cell-based; conditions: B. melaninogenicus (J18M2)
Experimental: (§1) The minimal inhibitory concentration (MIC) of the test compound is the minimum concentration of compound required to inhibit growth of the test microorganism. The MIC is determined by serially diluting the test solution through tubes of sterile broth. The tubes are inoculated and incubated at 37°C for 48 hours. At the end of the incubation time, growth is checked macroscopically. The lowest concentration of test compound to inhibit growth is the MIC. This technique is used to assess antimicrobial activity of combinations. The checkerboard is the pattern found by multiple combinations of two agents in concentrations equal to, above and below their minimal inhibitory concentration for the microorganism tested against. The checkerboard consists of columns which contain the same amount of one agent which is diluted along the x-axis and rows which each contain the same amount of the second agent diluted along the y-axis. Thus each tube is a unique combination of the two agents. […] A method for illustrating the effect of the combination of the two agents is obtained by plotting the MIC's of each agent alone and the MIC's for these agents in combination. Antimicrobial synergy is indicated if the MIC's for the agents in combination are lower than the MIC's for the agents alone.

Streptococcus mutans = test: as above; type: cell-based; conditions: S. mutans (ATCC 2517S)
Experimental: as §1

[2] = agent alone (other agent 0), Table VIII
[3] = in combination with 50 milligrams/liter morpholinoamino alcohol HCl
[4] = in combination with 100 milligrams/liter morpholinoamino alcohol HCl

SMILES: CCCCCCCCCCCCCCCC[n+]1ccccc1 [cetyl pyridinium chloride, reference compound]
- Minimum Inhibitory Concentration [1, 2]: 0.0125 milligrams/liter
- Minimum Inhibitory Concentration [1, 3]: 0.006 milligrams/liter
- Minimum Inhibitory Concentration [1, 4]: 0.003 milligrams/liter
- Minimum Inhibitory Concentration (Streptococcus mutans; [2]): 0.025 milligrams/liter
- Minimum Inhibitory Concentration (Streptococcus mutans; [3]): 0.0188 milligrams/liter
- Minimum Inhibitory Concentration (Streptococcus mutans; [4]): 0.0125 milligrams/liter
